The list is a part of this screen's results and no random one: it gathers tests that were run many times, whatever their T/C, doses with no T/C, and many T/C values between a quarter and a half above the control. Other doses and runs of a compound stand elsewhere. T/C is the treated group as % of the vehicle group. Some entries give survivors of the animals treated and no T/C: the source files T/C as zero there, which appears to mark a toxic dose or a test without result, not a measured value. Some survivor counts are full or nearly so, which does not show that the dose was tolerated: survival well below the control is almost never listed, so the zero probably covers shortened survival too. Counts of survivors are from the toxicity check (mostly the fifth day) where no day follows; animals may have died later. Schedules are NCI's codes, read here as Q, the interval in days (D) or hours (H), X, the number of doses. Some doses were run more than once; the values are given in rising order. For survival time, the PubChem record calls one and a half times the control and up active, and a quarter to a half above the control has no call in these data; cut-offs in other NCI protocols can differ. Marks such as (2×) give the number of equal values in this list. Some T/C values carry the count of animals alive at the toxicity check (mostly the fifth day); without a count, all were alive then.
Tested on: BDF1 mice, B16 melanoma ip, median survival T/C
Experiment: NCI In Vivo Anticancer Drug Screen. Data for tumor model B16 Melanoma (intraperitoneal) in B6D2F1 (BDF1) mice
Settings: T/C endpoint: median survival time, higher T/C = longer survival
Outline: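 In this screen, activity was judged from survival or tumor size in treated versus vehicle-treated tumor-bearing mice, reported as T/C.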

[1] = dose: 3.0 mg/kg/injection, schedule: Q01DX009 (ip), vehicle: saline

COc1cccc2c1C(=O)c1c(O)c3c(c(O)c1C2=O)C[C@@](O)(C(=O)CO)C[C@@H]3OC1CC(N)C(O)C(C)O1 (stereo not given in full)
T/C (dose: 1.0 mg/kg/injection, schedule: Q01DX009 (ip), vehicle: saline, evaluated on day 45): 219 % of control
T/C (dose: 1.0 mg/kg/injection, schedule: Q01DX009 (ip), vehicle: saline, evaluated on day 60): 151, 167, 187, 190, 213 (2×), 215 [9 of 10 alive], 244, 250, 260, 262, 267, 283, 288, 298, 301, 303, 309, 313, 322, 376 % of control
T/C (dose: 1.0 mg/kg/injection, schedule: Q01DX009 (ip), vehicle: saline, evaluated on day 90): 434 and 491 % of control
T/C (dose: 1.0 mg/kg/injection, schedule: Q04DX003 (ip), vehicle: saline, evaluated on day 8): 130 % of control
T/C (dose: 1.0 mg/kg/injection, schedule: Q04DX003 (ip), vehicle: saline, evaluated on day 60): 130 [9 of 10 alive], 144 [9 of 10 alive], 226, 240, 260 % of control
T/C (dose: 1.5 mg/kg/injection, schedule: Q01DX001 (ip), vehicle: water, evaluated on day 45): 222 % of control
T/C (dose: 1.5 mg/kg/injection, schedule: Q01DX001 (ip), vehicle: water, evaluated on day 60): 180, 190, 287 % of control [9 of 10 alive]
survivor count (dose: 1.5 mg/kg/injection, schedule: Q03HX008 (ip), vehicle: saline): 10 of 10
T/C (dose: 1.73 mg/kg/injection, schedule: Q04DX003 (ip), vehicle: water, evaluated on day 60): 146, 149, 209, 232 % of control
T/C (dose: 1.73 mg/kg/injection, schedule: Q04DX003 (ip), vehicle: water, evaluated on day 75): 127 and 166 % of control
T/C (dose: 1.9 mg/kg/injection, schedule: Q01DX001 (ip), vehicle: water): 125 % of control
T/C (dose: 2.0 mg/kg/injection, schedule: Q01DX001 (ip), vehicle: saline, evaluated on day 5): 177 and 216 % of control
T/C (dose: 2.0 mg/kg/injection, schedule: Q01DX001 (ip), vehicle: saline, evaluated on day 45): 219 % of control
T/C (dose: 2.0 mg/kg/injection, schedule: Q01DX001 (ip), vehicle: saline, evaluated on day 60): 178 % of control
T/C (dose: 2.0 mg/kg/injection, schedule: Q01DX001 (ip), vehicle: water, evaluated on day 40): 122 % of control
T/C (dose: 2.0 mg/kg/injection, schedule: Q01DX001 (ip), vehicle: water, evaluated on day 45): 112, 122, 169 % of control
T/C (dose: 2.0 mg/kg/injection, schedule: Q01DX001 (ip), vehicle: water, evaluated on day 50): 144 % of control
T/C (dose: 2.0 mg/kg/injection, schedule: Q01DX001 (ip), vehicle: water, evaluated on day 60): 113, 153, 158, 170, 173, 175, 177, 179 (3×), 183, 185, 188, 192, 196 (2×), 197, 199, 205, 210, 213, 219 (2×), 222, 226, 232 (2×), 235, 251, 252, 255, 281, 284, 288, 289, 293, 300 % of control
T/C (dose: 2.0 mg/kg/injection, schedule: Q01DX009 (ip), vehicle: saline, evaluated on day 5): 185, 217, 398 % of control
T/C (dose: 2.0 mg/kg/injection, schedule: Q01DX009 (ip), vehicle: saline, evaluated on day 45): 219 % of control
T/C (dose: 2.0 mg/kg/injection, schedule: Q01DX009 (ip), vehicle: saline, evaluated on day 60): 125 [9 of 10 alive], 164, 172 [9 of 10 alive], 173, 209, 212, 251, 252, 262, 282, 288, 298, 300, 303, 315 (2×), 321 % of control
T/C (dose: 2.0 mg/kg/injection, schedule: Q01DX009 (ip), vehicle: saline, evaluated on day 90): 185 and 398 % of control
survivor count (dose: 2.0 mg/kg/injection, schedule: Q01DX009 (ip), vehicle: saline): 10 of 10
T/C (dose: 2.0 mg/kg/injection, schedule: Q04DX003 (ip), vehicle: saline, evaluated on day 8): 170 % of control
T/C (dose: 2.0 mg/kg/injection, schedule: Q04DX003 (ip), vehicle: saline, evaluated on day 60): 180, 188, 210, 222, 272 % of control
T/C (dose: 2.88 mg/kg/injection, schedule: Q04DX003 (ip), vehicle: water, evaluated on day 60): 151, 161, 245, 301 % of control
T/C (dose: 2.88 mg/kg/injection, schedule: Q04DX003 (ip), vehicle: water, evaluated on day 75): 138 and 245 % of control
T/C (dose: 2.9 mg/kg/injection, schedule: Q01DX001 (ip), vehicle: saline): 129 % of control (2×)
T/C (dose: 3.0 mg/kg/injection, schedule: Q01DX001 (ip), vehicle: water, evaluated on day 45): 234 % of control
T/C (dose: 3.0 mg/kg/injection, schedule: Q01DX001 (ip), vehicle: water, evaluated on day 60): 180, 269, 287 % of control
T/C [1]: 131 % of control
survivor count [1]: 10 of 10
survivor count (dose: 3.0 mg/kg/injection, schedule: Q03HX008 (ip), vehicle: saline): 8 of 10 and 10 of 10
T/C (dose: 3.6 mg/kg/injection, schedule: Q01DX001 (ip), vehicle: water, evaluated on day 60): 124 and 227 % of control
T/C (dose: 3.6 mg/kg/injection, schedule: Q01DX001 (ip), vehicle: water, evaluated on day 65): 129 and 176 % of control
T/C (dose: 3.6 mg/kg/injection, schedule: Q01DX001 (ip), vehicle: water, evaluated on day 75): 117 and 241 % of control
T/C (dose: 3.8 mg/kg/injection, schedule: Q01DX001 (ip), vehicle: water): 142 % of control [9 of 10 alive]
T/C (dose: 4.0 mg/kg/injection, schedule: Q01DX001 (ip), vehicle: saline, evaluated on day 1): 220 % of control
T/C (dose: 4.0 mg/kg/injection, schedule: Q01DX001 (ip), vehicle: saline, evaluated on day 5): 271 % of control
T/C (dose: 4.0 mg/kg/injection, schedule: Q01DX001 (ip), vehicle: saline, evaluated on day 6): 220 % of control

Source: PubChem BioAssay AID192 (DTP/NCI, 2004)
